# Source: PMC9057599
# Protein sequences, listed by entry. Tags and fused reporters are not part of them.
# UniProt Q5VSL9: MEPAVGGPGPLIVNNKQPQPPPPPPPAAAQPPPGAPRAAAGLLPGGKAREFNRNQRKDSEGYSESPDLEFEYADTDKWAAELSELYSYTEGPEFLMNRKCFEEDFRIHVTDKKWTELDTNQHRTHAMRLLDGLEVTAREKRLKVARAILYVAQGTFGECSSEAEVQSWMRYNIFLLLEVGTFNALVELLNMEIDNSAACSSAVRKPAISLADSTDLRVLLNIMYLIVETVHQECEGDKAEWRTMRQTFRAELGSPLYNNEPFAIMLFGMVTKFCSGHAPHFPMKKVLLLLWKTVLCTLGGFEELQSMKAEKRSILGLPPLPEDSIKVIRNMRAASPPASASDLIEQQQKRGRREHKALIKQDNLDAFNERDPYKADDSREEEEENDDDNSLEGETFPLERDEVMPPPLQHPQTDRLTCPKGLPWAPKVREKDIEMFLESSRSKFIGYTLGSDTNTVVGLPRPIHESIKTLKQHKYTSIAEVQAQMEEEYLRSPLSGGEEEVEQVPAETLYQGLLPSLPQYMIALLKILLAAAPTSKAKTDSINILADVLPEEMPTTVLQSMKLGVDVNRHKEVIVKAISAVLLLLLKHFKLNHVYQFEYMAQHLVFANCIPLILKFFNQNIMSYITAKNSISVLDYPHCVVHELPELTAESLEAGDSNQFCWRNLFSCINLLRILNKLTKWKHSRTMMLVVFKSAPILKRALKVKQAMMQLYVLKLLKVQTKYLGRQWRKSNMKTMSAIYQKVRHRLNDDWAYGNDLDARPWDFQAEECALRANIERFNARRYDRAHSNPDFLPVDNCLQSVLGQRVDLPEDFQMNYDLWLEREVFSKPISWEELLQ
# T1: MST2 BioID bait (UniProt Q13188)
# T1 sequence: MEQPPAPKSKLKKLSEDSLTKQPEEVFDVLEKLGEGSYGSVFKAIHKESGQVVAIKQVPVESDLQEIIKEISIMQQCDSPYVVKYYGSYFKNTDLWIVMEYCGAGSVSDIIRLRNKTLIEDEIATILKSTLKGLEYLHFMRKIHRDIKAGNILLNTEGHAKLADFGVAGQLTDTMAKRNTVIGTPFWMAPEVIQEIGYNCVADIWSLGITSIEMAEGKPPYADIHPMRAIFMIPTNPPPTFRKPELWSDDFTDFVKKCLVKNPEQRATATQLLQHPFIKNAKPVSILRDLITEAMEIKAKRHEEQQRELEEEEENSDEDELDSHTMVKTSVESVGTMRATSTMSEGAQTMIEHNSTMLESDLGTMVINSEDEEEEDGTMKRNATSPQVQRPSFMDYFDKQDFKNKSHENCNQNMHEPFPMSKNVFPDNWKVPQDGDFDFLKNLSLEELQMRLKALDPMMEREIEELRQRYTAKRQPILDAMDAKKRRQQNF
# T2: SIKE1 BioID bait, Q9BRV8
# T2 chain: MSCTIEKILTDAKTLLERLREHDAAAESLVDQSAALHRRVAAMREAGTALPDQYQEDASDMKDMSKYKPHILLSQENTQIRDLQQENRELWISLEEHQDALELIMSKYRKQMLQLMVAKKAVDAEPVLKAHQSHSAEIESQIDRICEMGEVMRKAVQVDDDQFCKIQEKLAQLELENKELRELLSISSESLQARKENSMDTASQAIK
# Legend:
# MST2 BioID bait = biological target: T1, MST2 BioID bait; assay: proximity labelling; BioID with mass spectrometry; 293A cells transiently transfected for 24 hours, DMSO or etoposide (1 h), harvested at an early (2 h) or late (18 h) stage
# SIKE1 BioID bait, Q9BRV8 = biological target: T2, SIKE1 BioID bait, Q9BRV8; assay: as above; conditions: remark: other sources report otherwise
Molecule,binding (MST2 BioID bait),"binding (SIKE1 BioID bait, Q9BRV8)"
"mammalian STE20-like protein kinase 2 (MST2), Q13188 1-491 (protein) MEQPPAPKSKLKKLSEDSLTKQPEEVFDVLEKLGEGSYGSVFKAIHKESGQVVAIKQVPVESDLQEIIKEISIMQQCDSPYVVKYYGSYFKNTDLWIVMEYCGAGSVSDIIRLRNKTLIEDEIATILKSTLKGLEYLHFMRKIHRDIKAGNILLNTEGHAKLADFGVAGQLTDTMAKRNTVIGTPFWMAPEVIQEIGYNCVADIWSLGITSIEMAEGKPPYADIHPMRAIFMIPTNPPPTFRKPELWSDDFTDFVKKCLVKNPEQRATATQLLQHPFIKNAKPVSILRDLITEAMEIKAKRHEEQQRELEEEEENSDEDELDSHTMVKTSVESVGTMRATSTMSEGAQTMIEHNSTMLESDLGTMVINSEDEEEEDGTMKRNATSPQVQRPSFMDYFDKQDFKNKSHENCNQNMHEPFPMSKNVFPDNWKVPQDGDFDFLKNLSLEELQMRLKALDPMMEREIEELRQRYTAKRQPILDAMDAKKRRQQNF",–,binds
"STRN3 (protein, UniProt Q13033 1-797) MDELAGGGGGGPGMAAPPRQQQGPGGNLGLSPGGNGAAGGGGPPASEGAGPAAGPELSRPQQYTIPGILHYIQHEWARFEMERAHWEVERAELQARIAFLQGERKGQENLKKDLVRRIKMLEYALKQERAKYHKLKYGTELNQGDLKMPTFESEETKDTEAPTAPQNSQLTWKQGRQLLRQYLQEVGYTDTILDVRSQRVRSLLGLSNSEPNGSVETKNLEQILNGGESPKQKGQEIKRSSGDVLETFNFLENADDSDEDEENDMIEGIPEGKDKHRMNKHKIGNEGLAADLTDDPDTEEALKEFDFLVTAEDGEGAGEARSSGDGTEWDKDDLSPTAEVWDVDQGLISKLKEQYKKERKGKKGVKRANRTKLYDMIADLGDDELPHIPSGIINQSRSASTRMTDHEGARAEEAEPITFPSGGGKSFIMGSDDVLLSVLGLGDLADLTVTNDADYSYDLPANKDAFRKTWNPKYTLRSHFDGVRALAFHPVEPVLVTASEDHTLKLWNLQKTVPAKKSASLDVEPIYTFRAHIGPVLSLAISSNGEQCFSGGIDATIQWWNMPSPSVDPYDTYEPNVLAGTLVGHTDAVWGLAYSGIKNQLLSCSADGTVRLWNPQEKLPCICTYNGDKKHGIPTSVDFIGCDPAHMVTSFNTGSAVIYDLETSQSLVILSSQVDSGLQSNNHINRVVSHPTLPVTITAHEDRHIKFFDNKTGKMIHSMVAHLDAVTSLAVDPNGIYLMSGSHDCSIRLWNLDSKTCVQEITAHRKKLDESIYDVAFHSSKAYIASAGADALAKVFV",binds,–
"STRN4 (protein, UniProt Q9NRL3 1-753) MMEERAAAAVAAAASSCRPLGSGAGPGPTGAAPVSAPAPGPGPAGKGGGGGGSPGPTAGPEPLSLPGILHFIQHEWARFEAEKARWEAERAELQAQVAFLQGERKGQENLKTDLVRRIKMLEYALKQERAKYHKLKFGTDLNQGEKKADVSEQVSNGPVESVTLENSPLVWKEGRQLLRQYLEEVGYTDTILDMRSKRVRSLLGRSLELNGAVEPSEGAPRAPPGPAGLSGGESLLVKQIEEQIKRNAAGKDGKERLGGSVLGQIPFLQNCEDEDSDEDDELDSVQHKKQRVKLPSKALVPEMEDEDEEDDSEDAINEFDFLGSGEDGEGAPDPRRCTVDGSPHELESRRVKLQGILADLRDVDGLPPKVTGPPPGTPQPRPHEDVFIMDTIGGGEVSLGDLADLTVTNDNDLSCDLSDSKDAFKKTWNPKFTLRSHYDGIRSLAFHHSQSALLTASEDGTLKLWNLQKAVTAKKNAALDVEPIHAFRAHRGPVLAVAMGSNSEYCYSGGADACIHSWKIPDLSMDPYDGYDPSVLSHVLEGHGDAVWGLAFSPTSQRLASCSADGTVRIWDPSSSSPACLCTFPTASEHGVPTSVAFTSTEPAHIVASFRSGDTVLYDMEVGSALLTLESRGSSGPTQINQVVSHPNQPLTITAHDDRGIRFLDNRTGKPVHSMVAHLDAVTCLAVDPNGAFLMSGSHDCSLRLWSLDNKTCVQEITAHRKKHEEAIHAVACHPSKALIASAGADALAKVFV",binds,–

# Further lines, results first:
binding (MST2 BioID bait),"binding (SIKE1 BioID bait, Q9BRV8)",Molecule
binds,–,striatin-interacting protein 1 (STRIP1) (from UniProt Q5VSL9 1-837)
binds,–,"sarcolemma membrane–associated protein (SLMAP) (protein, UniProt Q14BN4 1-828) MPSALAIFTCRPNSHPFQERHVYLDEPIKIGRSVARCRPAQNNATFDCKVLSRNHALVWFDHKTGKFYLQDTKSSNGTFINSQRLSRGSEESPPCEILSGDIIQFGVDVTENTRKVTHGCIVSTIKLFLPDGMEARLRSDVIHAPLPSPVDKVAANTPSMYSQELFQLSQYLQEALHREQMLEQKLATLQRLLAITQEASDTSWQALIDEDRLLSRLEVMGNQLQACSKNQTEDSLRKELIALQEDKHNYETTAKESLRRVLQEKIEVVRKLSEVERSLSNTEDECTHLKEMNERTQEELRELANKYNGAVNEIKDLSDKLKVAEGKQEEIQQKGQAEKKELQHKIDEMEEKEQELQAKIEALQADNDFTNERLTALQVRLEHLQEKTLKECSSLEHLLSKSGGDCTFIHQFIECQKKLIVEGHLTKAVEETKLSKENQTRAKESDFSDTLSPSKEKSSDDTTDAQMDEQDLNEPLAKVSLLKDDLQGAQSEIEAKQEIQHLRKELIEAQELARTSKQKCFELQALLEEERKAYRNQVEESTKQIQVLQAQLQRLHIDTENLREEKDSEITSTRDELLSARDEILLLHQAAAKVASERDTDIASLQEELKKVRAELERWRKAASEYEKEITSLQNSFQLRCQQCEDQQREEATRLQGELEKLRKEWNALETECHSLKRENVLLSSELQRQEKELHNSQKQSLELTSDLSILQMSRKELENQVGSLKEQHLRDSADLKTLLSKAENQAKDVQKEYEKTQTVLSELKLKFEMTEQEKQSITDELKQCKNNLKLLREKGNNKPWPWMPMLAALVAVTAIVLYVPGLARASP"

# No constants are given. Whether binding was seen depends on the method and setting. Binding seen in cells or lysates may run through a third protein. Here binding means that the protein was enriched with, or labelled near, the bait; the list need not be complete.
